No constants are given. Whether binding was seen depends on the method and setting.
Target: T1, S. cerevisiae eIF4E (S. cerevisiae, UniProt P07260 1-213)
T1 construct: eIF4E of S. cerevisiae; 15N isotope labelled; m7GTP added to 250 μM in the NMR sample; source: E. coli BL21-star, purified (nickel resin, TEV cleavage, m7G cap resin)
T1 sequence (looked up): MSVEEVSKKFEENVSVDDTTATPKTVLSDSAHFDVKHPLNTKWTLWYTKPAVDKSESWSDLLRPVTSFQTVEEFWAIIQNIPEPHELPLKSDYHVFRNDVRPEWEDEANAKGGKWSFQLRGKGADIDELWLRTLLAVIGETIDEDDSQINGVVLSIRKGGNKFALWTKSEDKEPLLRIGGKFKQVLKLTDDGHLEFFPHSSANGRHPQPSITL
Assay: NMR titration; 15N HSQC of 200 μM 15N eIF4E with 250 μM m7GTP, peptide added to 1 mM; 50 mM phosphate pH 6.5, 50 mM KCl, 10% D2O, 298 K, 900 MHz; both purified

B1: DDX3X 33–51 peptide (peptide)
peptide: ASKGRYIPPHLRNREATKGAA
**Q.** With B1 as the binder, how does the binding read?
**A.** Its binding is “no binding (tested: 1 mM)”.
